About 5,400 (1.8%) of roughly 300,000 compounds were called active. Inconclusive results, whose numbers are uncertain, are shown with a selection of clear calls. Calls come from the whole dose curve; tested in HEK293 cells. Potencies of inconclusive entries are doubtful fits and often do not repeat.
Experiment: qHTS for inhibitors of binding or entry into cells for Marburg Virus
Settings: Marburg virus pseudotyped entry inhibition, cell reporter; activity change, negative = inhibition: at 37.8 µM (top of the series) unless noted
% is set by controls: 0 for no effect and ±100 for the full control effect; potency is the fitted concentration of half-maximal effect.

| SMILES | activity change, negative = inhibition | Potency |
| --- | --- | --- |
| C/C(=N\NC(=O)c1cccc2ccccc12)c1cccnc1 | inactive: -16.8% [at 46.1 µM] | – |
| CCOC(=O)c1c(NC(C)=O)sc2c1CCCNC2=O | – | inconclusive: 6.31 µM [activator, full curve, poor fit] |
| COc1ccc(/C=N\NC(=O)c2ccccc2[N+](=O)[O-])cc1COc1c(F)c(F)c(F)c(F)c1F | – | inconclusive: 1.26 µM [activator, single point] |
| COc1ccc(C(=O)CSc2nc(C)cc(=O)[nH]2)cc1 | inactive: 22.1% | – |
| COCCNC(=O)c1c(N)n(CCC(C)C)c2nc3ccccc3nc12 | – | inconclusive: 7.08 µM [inhibitor, full curve, poor fit] |
| Clc1ccc2[nH]c3c(NCC4CCCO4)ncnc3c2c1 (stereo not given) | inactive: 0% | – |
| Cc1ccc(Sc2ccc(N3CCCC(C(=O)Nc4ccc(F)cc4)C3)nn2)cc1 (stereo not given) | inactive: -15.8% [at 46.1 µM] | – |
| Nc1ccc2c(c1)C/C(=C/c1ccco1)C2=O | – | inconclusive: 35.5 µM [inhibitor, single point] |
| CCCCCCn1c(CN2CCCCC2)nc2c1c(=O)n(C)c(=O)n2C | – | inconclusive: 7.3 µM [inhibitor, partial curve] |
| Cc1ccc(CN2CCN(/N=C/C(Br)=C\c3ccccc3)CC2)cc1 | – | inconclusive: 0.562 µM [inhibitor, full curve, poor fit] |
| CC(=O)c1ccccc1NC(=O)COC(=O)C1=NN(c2ccccc2)C(=O)CC1 | inactive: 5.68% [at 46.1 µM] | – |
| CCCS(=O)(=O)c1nc(S(=O)(=O)c2ccc(C)cc2)c(NCCCOC(C)C)s1 | inactive: 14.7% [at 46.1 µM] | – |
| COc1ccc2nc(SCC(O)c3cccc(Br)c3)[nH]c2c1 (stereo not given) | inactive: 7.69% [at 46.1 µM] | – |
| c1ccc(-c2nnc(-c3ccccc3)nn2)cc1 | – | inconclusive: 1.26 µM [activator, partial curve, poor fit] |
| Cc1nnc(SCCN2CCOCC2)c2nn(-c3ccccc3F)c(C)c12 | – | inconclusive: 17.8 µM [activator, single point] |
| Cc1[nH]nc(SCC(=O)N2CCOCC2)c1[N+](=O)[O-] | inactive: 21.4% [at 46.1 µM] | – |
| COc1ccc(NC(=O)COc2ccc(C)c(C)c2)cc1S(=O)(=O)N1CCCCC1 | – | inconclusive: 12.6 µM [inhibitor, single point] |
| Cc1cccc(C)c1N1C(=O)c2cccc([N+](=O)[O-])c2C1=O | inactive: 20.9% | – |
| CC(C)C(NC(=O)CSCc1ccc([N+](=O)[O-])cc1)C(C)C | – | inconclusive: 3.98 µM [inhibitor, single point] |
| COCCN1C(=O)NC(c2cccc(C(F)(F)F)c2)C(C(=O)OC)=C1C (stereo not given) | – | inconclusive: 0.0027 µM [activator, full curve, poor fit] |
| O=C(NC(=S)NCC1CCCO1)c1cccs1 (stereo not given) | – | inconclusive: 2.82 µM [activator, single point] |
| Cc1onc(-c2c(Cl)cccc2Cl)c1C(=O)Nc1ccc(N2CCOCC2)cc1 | – | inconclusive: 0.282 µM [inhibitor, single point] |
| Cc1c(C(Nc2ccccn2)c2ccc(Cl)cc2)c(=O)n(-c2ccccc2)n1C (stereo not given) | – | inconclusive: 5.17 µM [inhibitor, single point] |
| OCCC1CN(Cc2ccc(C(F)(F)F)cc2)CCN1Cc1ccccc1 (stereo not given) | – | inconclusive: 35.5 µM [inhibitor, single point] |

| SMILES | activity change, negative = inhibition | Potency |
| --- | --- | --- |
| O=C(COc1ccccc1Cl)Nc1cc(NC(=O)COc2ccccc2Cl)cc(C(=O)O)c1 | – | inconclusive: 14.1 µM [inhibitor, partial curve, poor fit] |
| Cc1ccc(C)c(OCc2cc(C(=O)N3CCN(C(=O)c4ccco4)CC3)no2)c1 | inactive: -14.8% | – |
| N#CC1=C(N)C(C#N)(C#N)[C@H](c2c(F)cccc2F)[C@H]2CC3(CC=C12)OCCO3 | – | inconclusive: 1.03 µM [inhibitor, full curve, poor fit] |
| O=C1c2cccc3c(O)ccc(c23)C(=O)N1c1ccc(Cl)cc1 | inactive: 15.8% [at 46.1 µM] | – |
| CN(C)c1nc(NCc2ccccc2)nc(N/N=C/c2cccc(Br)c2)n1 | – | inconclusive: 8.91 µM [inhibitor, partial curve] |
| c1ccc(-c2nc(NCc3cccnc3)c3oc4ccccc4c3n2)cc1 | – | inconclusive: 32.6 µM [inhibitor, partial curve, poor fit] |
| O=C(COc1ccc(Cl)cc1Cl)Nc1c(-c2cccs2)nc2ccccn12 | inactive: -19.4% | – |
| COC(=O)c1ccc(NC(=S)NCCc2ccccc2)cc1 | inactive: -23.3% | – |
| CCc1ccc(S(=O)(=O)NCc2cccs2)cc1 | inactive: -7.13% | – |
| Cc1ccnc(NC(=O)Nc2cccc(F)c2)c1 | – | inconclusive: 6.51 µM [inhibitor, full curve, poor fit] |
| C/C(=N\Nc1nc(C)c(C)s1)c1ccc([N+](=O)[O-])cc1 | – | inconclusive: 35.5 µM [inhibitor, single point] |
| O=Nc1onc(-c2ccc([N+](=O)[O-])cc2)c1NO | – | inconclusive: 7.08 µM [inhibitor, full curve, poor fit] |
| COc1ccc2c(c1)c(CC(=O)Nc1cc(C)cc(C)c1)c(C)n2C(=O)c1ccc(Cl)cc1 | – | inconclusive: 7.08 µM [inhibitor, partial curve, poor fit] |
| O=C(CCN1C(=O)C2CCCCC2C1=O)Nc1nc2ccc(F)cc2s1 (stereo not given) | – | inconclusive: 10 µM [inhibitor, partial curve, poor fit] |
| COc1ccc(-c2nc(SC)n(C)c(=O)c2C#N)cc1OC | inactive: -11.3% [at 46.1 µM] | – |
| COc1ccc(CNC(=O)c2sc3nc4c(c(C(F)(F)F)c3c2N)CCC4)cc1 | inactive: 6.24% | – |
| COc1ccc(N2CCN(C(=O)[C@H](C)NC(=O)c3ccccc3Cl)CC2)cc1 | – | inconclusive: 0.501 µM [activator, full curve, poor fit] |
| N/C(=N\OC(=O)c1ccccc1Cl)c1ccc(Cl)cc1 | – | inconclusive: 35.5 µM [inhibitor, partial curve, poor fit] |
| COc1ccc(NC(=O)Cn2c(=O)n(CCCCCC(=O)NCc3ccc4c(c3)OCO4)c(=O)c3sccc32)cc1Cl | inactive: -7.34% [at 46.1 µM] | – |
| CCOC(=O)c1c(C)oc2ccc(O)c(CN3CCCCC3)c12 | – | inconclusive: 20.6 µM [inhibitor, partial curve] |
| COc1ccc(/C(C)=N/NC(=O)c2ccncc2)cc1[N+](=O)[O-] | inactive: -27.7% | – |
| Cc1ccc(-n2nnnc2SCC(=O)N2CCCCC2)cc1 | – | inconclusive: 16.4 µM [activator, single point] |
| CCCSc1oc(-c2cccs2)nc1S(=O)(=O)c1ccc(C)cc1 | inactive: -8.68% [at 46.1 µM] | – |
| Cc1ccc(OC(=O)COc2ccccc2C)c(-n2nc3ccccc3n2)c1 | – | inconclusive: 0.0366 µM [activator, full curve, poor fit] |

| SMILES | activity change, negative = inhibition | Potency |
| --- | --- | --- |
| CS(=O)(=O)N1CCN(C(=O)C(Sc2ccccc2)c2ccccc2)CC1 (stereo not given) | inactive: 3.86% | – |
| CCCN(CC1CC1)C(=S)NC(=O)c1cc(Br)ccc1Cl | inactive: -34.3% | – |
| CC(=O)N/C(=C/c1ccccc1)C(=O)NC(Cc1ccccc1)C(=O)O (stereo not given) | – | inconclusive: 1.26 µM [inhibitor, single point] |
| O=C1c2ccsc2SCCN1Cc1cccc(F)c1 | – | inconclusive: 1.26 µM [inhibitor, full curve, poor fit] |
| Cc1ccc(Cn2c(C)c3cnn(CC(=O)O)c(=O)c3c2C)cc1 | inactive: 8.06% [at 46.1 µM] | – |
| FC(F)(F)c1nc2cc3nc4ccccc4[nH]c3cc2n1 | inactive: 4.97% | – |
| Cc1ccc(-c2noc(-c3cccnc3NCc3ccco3)n2)cc1 | – | inconclusive: 11.2 µM [inhibitor, partial curve, poor fit] |
| [O-][N+]12CC[N+]([O-])(CC1)c1ccccc12 | – | inconclusive: 0.282 µM [activator, partial curve, poor fit] |
| COc1ccc(C(C)(C)C)cc1S(=O)(=O)n1ccnc1C | inactive: -2.86% | – |
| CNC(=O)c1c(NC(=O)c2ccc3ncsc3c2)sc(C)c1C | inactive: 3.16% | – |
| CCCC(=O)Nc1cccc(NC(=S)NC(=O)C(C)Oc2ccc(Cl)cc2Cl)c1 (stereo not given) | – | inconclusive: 35.5 µM [inhibitor, single point] |
| C=CC[n+]1c(-c2ccc(Cl)cc2Cl)csc1Nc1ccc(NC(C)=O)cc1 | – | active: 3.16 µM |
| COC(=O)C1=C(N)Oc2cc(C)n(C)c(=O)c2C1c1ccc(Cl)c(Cl)c1 (stereo not given) | – | inconclusive: 3.98 µM [inhibitor, single point] |
| COc1cc(C2C(C#N)=C(N)Oc3c2ccc2ccccc32)ccc1OCC(=O)Nc1ccc(C)cc1 (stereo not given) | – | inconclusive: 8.91 µM [inhibitor, partial curve, poor fit] |
| O=C(NC(Cc1ccccc1)C(=O)O)/C(=C\c1ccco1)NC(=O)c1ccco1 (stereo not given) | – | inconclusive: 0.562 µM [activator, full curve, poor fit] |
| N#Cc1ccc(-c2ccccc2)nc1SCC(=O)c1cccc(Cl)c1 | inactive: 2.77% | – |
| O=C(NCc1cccnc1)/C(=C/c1ccc(-c2ccc(Cl)cc2)o1)S(=O)(=O)c1ccccc1 | – | inconclusive: 20.6 µM [inhibitor, single point] |
| Cc1nnc(N/N=C/c2ccccc2O)n1N | – | inconclusive: 12.6 µM [inhibitor, partial curve, poor fit] |
| Cc1nc2ccccc2n1C(=O)N(C)C | – | inconclusive: 3.16 µM [activator, partial curve, poor fit] |
| COc1ccc(-c2cc(OC(=O)c3ccccc3Cl)c3c(C)oc(C)c3c(=O)c2)cc1OC | – | inconclusive: 35.5 µM [inhibitor, single point] |
| CCc1nnc(SCc2cccc(Cl)c2)c2cc3sccc3n12 | – | inconclusive: 31.6 µM [activator, single point] |
| O=[N+]([O-])c1c(O)c(Cl)cc(Cl)c1Cl (tested in a mixture with another compound) | – | inconclusive: 35.5 µM [inhibitor, single point] |

Record cards, as listed above.
Cc1nnc(N/N=C/c2ccccc2O)n1N as listed: Potency: inconclusive: 12.6 µM [inhibitor, partial curve, poor fit]
O=[N+]([O-])c1c(O)c(Cl)cc(Cl)c1Cl (tested in a mixture with another compound) as listed: Potency: inconclusive: 35.5 µM [inhibitor, single point]

Source: PubChem BioAssay AID540276 (National Center for Advancing Translational Sciences (NCATS), 2011)
